# Measurements as given in patent US20070060573A1, “Acyltryptophanols” (priority 2005, published 2007).
# By UniProt entry, the sequences of proteins in these tests, tags left out. Residues count along the entry.
# UniProt P23945, 18-695 limits assumed: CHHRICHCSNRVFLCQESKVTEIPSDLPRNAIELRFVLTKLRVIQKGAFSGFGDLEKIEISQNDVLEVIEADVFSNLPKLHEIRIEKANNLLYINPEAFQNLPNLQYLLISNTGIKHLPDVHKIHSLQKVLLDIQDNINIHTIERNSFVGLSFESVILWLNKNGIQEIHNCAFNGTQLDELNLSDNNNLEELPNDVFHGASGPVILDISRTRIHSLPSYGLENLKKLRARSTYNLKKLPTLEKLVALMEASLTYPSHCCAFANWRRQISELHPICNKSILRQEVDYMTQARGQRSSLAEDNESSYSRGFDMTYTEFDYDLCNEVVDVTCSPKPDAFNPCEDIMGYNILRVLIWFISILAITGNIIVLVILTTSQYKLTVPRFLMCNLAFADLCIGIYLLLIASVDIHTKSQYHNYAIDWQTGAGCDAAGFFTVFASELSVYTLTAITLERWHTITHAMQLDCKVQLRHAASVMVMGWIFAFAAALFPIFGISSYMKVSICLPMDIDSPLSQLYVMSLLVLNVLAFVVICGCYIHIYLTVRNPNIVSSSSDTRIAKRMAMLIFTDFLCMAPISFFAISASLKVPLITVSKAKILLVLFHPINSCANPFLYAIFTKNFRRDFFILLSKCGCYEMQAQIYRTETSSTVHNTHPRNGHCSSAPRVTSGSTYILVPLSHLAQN
# Target: human FSH receptor (Homo sapiens, UniProt P23945)
# Experiment: HTRF assay for measuring cAMP in cells, FSH-antagonistic effect (in the presence of hFSH)
# Settings: read-out: IC50 (FSH-antagonistic effect in the HTRF assay), hFSHR clone 16 cells (CHO cells stably transfected with the human FSH receptor), in the presence of 1e-9 mol/l hFSH, 37° C. for 2 h
# From the text: […]
structure (smiles),measurement,value
COc1ccc(-c2cc(C(=O)N[C@@H](CO)Cc3c[nH]c4ccccc34)c3ccccc3n2)cc1OC,IC50,9 µM

# Structures were worked out from names or drawings and are uncertain.
